From the supplement of paper PMC10849652
The list shows a part of the results.

Chains of the proteins cited; added tags and fusions are not shown. Lines headed by an entry give the natural chain unless they say otherwise; changes in a name come on top.
UniProt Q9UPS6, whole entry, looked up: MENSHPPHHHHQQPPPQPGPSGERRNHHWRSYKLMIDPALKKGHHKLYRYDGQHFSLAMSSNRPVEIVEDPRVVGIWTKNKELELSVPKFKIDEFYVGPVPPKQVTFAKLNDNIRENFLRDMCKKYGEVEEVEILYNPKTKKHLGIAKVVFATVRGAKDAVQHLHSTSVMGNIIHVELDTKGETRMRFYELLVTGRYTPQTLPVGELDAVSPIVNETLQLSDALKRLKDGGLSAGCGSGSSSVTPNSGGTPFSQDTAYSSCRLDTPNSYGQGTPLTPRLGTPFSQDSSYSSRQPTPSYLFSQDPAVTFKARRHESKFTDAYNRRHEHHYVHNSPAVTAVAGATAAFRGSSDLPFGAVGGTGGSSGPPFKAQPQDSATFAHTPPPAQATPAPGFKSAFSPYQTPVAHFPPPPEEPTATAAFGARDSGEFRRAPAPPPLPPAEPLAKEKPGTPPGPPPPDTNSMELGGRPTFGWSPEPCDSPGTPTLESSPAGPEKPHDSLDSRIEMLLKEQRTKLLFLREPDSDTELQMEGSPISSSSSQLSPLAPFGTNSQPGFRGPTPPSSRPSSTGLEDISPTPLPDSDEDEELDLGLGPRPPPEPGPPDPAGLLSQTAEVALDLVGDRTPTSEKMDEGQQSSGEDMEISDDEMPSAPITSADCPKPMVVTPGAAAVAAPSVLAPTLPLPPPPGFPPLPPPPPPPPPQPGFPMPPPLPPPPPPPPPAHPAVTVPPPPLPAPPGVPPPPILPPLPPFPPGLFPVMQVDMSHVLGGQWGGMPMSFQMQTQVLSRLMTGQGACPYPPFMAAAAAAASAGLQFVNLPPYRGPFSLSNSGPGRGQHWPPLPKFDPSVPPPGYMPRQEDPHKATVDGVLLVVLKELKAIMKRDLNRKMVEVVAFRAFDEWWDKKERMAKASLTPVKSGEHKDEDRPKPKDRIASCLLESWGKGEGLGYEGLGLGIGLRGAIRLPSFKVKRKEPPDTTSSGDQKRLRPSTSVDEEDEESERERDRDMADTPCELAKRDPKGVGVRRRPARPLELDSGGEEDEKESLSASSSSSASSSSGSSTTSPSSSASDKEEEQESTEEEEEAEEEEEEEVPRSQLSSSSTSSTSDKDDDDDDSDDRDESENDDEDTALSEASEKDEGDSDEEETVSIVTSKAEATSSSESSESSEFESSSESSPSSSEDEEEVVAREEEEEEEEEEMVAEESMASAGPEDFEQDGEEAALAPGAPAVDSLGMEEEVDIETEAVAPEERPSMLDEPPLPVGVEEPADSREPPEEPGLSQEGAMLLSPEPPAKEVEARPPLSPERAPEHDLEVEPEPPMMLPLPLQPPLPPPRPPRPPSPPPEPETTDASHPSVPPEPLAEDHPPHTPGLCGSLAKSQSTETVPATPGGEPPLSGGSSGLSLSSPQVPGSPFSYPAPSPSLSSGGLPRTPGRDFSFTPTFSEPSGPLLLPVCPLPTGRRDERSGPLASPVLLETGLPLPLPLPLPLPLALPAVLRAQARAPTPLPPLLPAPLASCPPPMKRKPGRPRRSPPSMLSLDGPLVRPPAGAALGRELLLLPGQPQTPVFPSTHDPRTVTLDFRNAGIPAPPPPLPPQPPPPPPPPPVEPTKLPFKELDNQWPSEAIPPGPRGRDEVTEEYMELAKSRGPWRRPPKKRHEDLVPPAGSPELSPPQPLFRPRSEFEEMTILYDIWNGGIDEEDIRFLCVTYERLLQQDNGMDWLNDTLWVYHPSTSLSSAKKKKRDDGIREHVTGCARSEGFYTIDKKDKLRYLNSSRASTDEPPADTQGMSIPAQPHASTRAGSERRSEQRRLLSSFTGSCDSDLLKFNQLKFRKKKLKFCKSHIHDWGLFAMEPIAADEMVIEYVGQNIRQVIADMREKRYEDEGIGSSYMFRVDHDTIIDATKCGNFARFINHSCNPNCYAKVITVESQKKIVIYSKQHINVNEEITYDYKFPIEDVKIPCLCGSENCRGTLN
UniProt Q96BR1: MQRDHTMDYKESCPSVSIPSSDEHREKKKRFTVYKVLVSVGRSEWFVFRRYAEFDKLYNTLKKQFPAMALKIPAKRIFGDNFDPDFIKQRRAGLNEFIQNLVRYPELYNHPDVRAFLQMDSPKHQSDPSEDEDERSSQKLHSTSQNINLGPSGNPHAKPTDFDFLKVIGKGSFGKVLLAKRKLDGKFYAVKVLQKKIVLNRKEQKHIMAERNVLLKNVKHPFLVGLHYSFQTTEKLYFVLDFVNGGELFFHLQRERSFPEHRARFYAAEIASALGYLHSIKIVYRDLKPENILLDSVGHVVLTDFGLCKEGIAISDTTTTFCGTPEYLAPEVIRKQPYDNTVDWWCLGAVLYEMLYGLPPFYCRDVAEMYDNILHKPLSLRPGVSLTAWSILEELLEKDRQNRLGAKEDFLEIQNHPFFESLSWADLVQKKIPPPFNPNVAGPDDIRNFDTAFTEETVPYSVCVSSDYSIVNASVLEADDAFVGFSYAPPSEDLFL
UniProt P12757: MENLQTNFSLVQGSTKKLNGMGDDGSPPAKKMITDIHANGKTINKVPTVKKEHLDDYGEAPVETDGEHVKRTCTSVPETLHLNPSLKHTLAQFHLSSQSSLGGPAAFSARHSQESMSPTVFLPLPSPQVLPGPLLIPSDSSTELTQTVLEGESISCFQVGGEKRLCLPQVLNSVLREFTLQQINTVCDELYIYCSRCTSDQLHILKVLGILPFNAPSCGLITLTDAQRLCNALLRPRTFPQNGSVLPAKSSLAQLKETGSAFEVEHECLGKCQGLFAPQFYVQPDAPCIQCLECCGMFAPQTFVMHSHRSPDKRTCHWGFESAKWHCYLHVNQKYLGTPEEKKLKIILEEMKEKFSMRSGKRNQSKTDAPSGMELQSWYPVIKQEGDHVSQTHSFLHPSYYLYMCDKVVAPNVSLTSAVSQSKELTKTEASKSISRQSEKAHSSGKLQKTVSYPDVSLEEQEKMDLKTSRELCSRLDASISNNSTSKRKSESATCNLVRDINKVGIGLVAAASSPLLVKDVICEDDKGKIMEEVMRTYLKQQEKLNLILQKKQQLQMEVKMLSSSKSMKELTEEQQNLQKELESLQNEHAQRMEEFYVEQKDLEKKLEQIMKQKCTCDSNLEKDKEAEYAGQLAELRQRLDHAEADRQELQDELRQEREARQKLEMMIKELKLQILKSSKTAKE
UniProt Q8NC51: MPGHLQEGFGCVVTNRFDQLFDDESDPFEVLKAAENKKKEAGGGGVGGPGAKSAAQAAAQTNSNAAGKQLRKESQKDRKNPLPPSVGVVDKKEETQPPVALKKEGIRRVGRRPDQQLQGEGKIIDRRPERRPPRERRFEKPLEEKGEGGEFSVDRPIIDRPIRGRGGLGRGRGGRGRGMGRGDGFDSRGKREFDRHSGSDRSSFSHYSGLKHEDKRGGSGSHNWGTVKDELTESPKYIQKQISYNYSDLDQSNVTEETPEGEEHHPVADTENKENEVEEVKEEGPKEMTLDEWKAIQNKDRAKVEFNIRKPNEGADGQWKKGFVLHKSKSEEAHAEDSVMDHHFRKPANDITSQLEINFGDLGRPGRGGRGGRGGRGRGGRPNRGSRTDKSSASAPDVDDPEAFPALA

Tests used:
Assay in all cases: log2 fold change, soluble protein after heating vs DMSO (PISA); higher = thermal stabilisation; K562 lysate, 10 uM; active = over 0.2 and 3.5 SD of the protein, either way, in both replicates (recomputed)
vemurafenib = compound: CCCS(=O)(=O)Nc1ccc(F)c(C(=O)c2c[nH]c3ncc(-c4ccc(Cl)cc4)cc23)c1F [vemurafenib]
Outline: (§1)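 The values are log-two fold changes in thermal stability compared with solvent controls and come from duplicates. They were obtained by TMTpro 16plex LC-MS/MS, with channel sums equalised, on the supernatant after 21,000xg for 90 min. That supernatant came from crude K562 extract at 1 mg/mL protein treated with 10 μM compound for 30 min, heated for 3 min across 48°C-58°C, pooled and brought to 0.5% NP-40 at 4°C.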

barasertib = compound: CCN(CCCOc1ccc2c(Nc3cc(CC(=O)Nc4cccc(F)c4)[nH]n3)ncnc2c1)CCOP(=O)(O)O [barasertib]
Outline: as §1

[1] = compound: CCn1cc(-c2ccnc3[nH]c(-c4cccc(CN(C)C)c4)cc23)c(-c2ccc(NC(=O)N(C)C)cc2)n1
Outline: as §1

[2] = compound: CN1CCC(CNc2ccc3ncc(-c4cccc(OC(F)(F)F)c4)n3n2)CC1
Outline: as §1

saracatinib = compound: CN1CCN(CCOc2cc(OC3CCOCC3)c3c(Nc4c(Cl)ccc5c4OCO5)ncnc3c2)CC1 [saracatinib]
Outline: as §1

sotrastaurin = compound: CN1CCN(c2nc(C3=C(c4c[nH]c5ccccc45)C(=O)NC3=O)c3ccccc3n2)CC1 [sotrastaurin]
Outline: as §1

alvocidib = compound: CN1CC[C@H](c2c(O)cc(O)c3c(=O)cc(-c4ccccc4Cl)oc23)[C@H](O)C1 [alvocidib]
Outline: as §1

defactinib = compound: CNC(=O)c1ccc(Nc2ncc(C(F)(F)F)c(NCc3nccnc3N(C)S(C)(=O)=O)n2)cc1 [defactinib]
Outline: as §1

[3] = compound: CNc1nc(-c2ccc3c(N)n[nH]c3c2)cc(N2C[C@@H](C(=O)NC3CCCCC3)CC[C@H]2C)n1
Outline: as §1

[4] = compound: CCn1c(C(=O)N(C2CC2)C2CC2)cc2c3c(ncn3C)c(Nc3cc(C)n(C)n3)nc21
Outline: as §1

Tubastatin A = compound: CN1CCc2c(c3ccccc3n2Cc2ccc(C(=O)NO)cc2)C1 [Tubastatin A]
Outline: as §1

[5] = compound: CNC(=O)C1=CC=CC=C1NC2=NC(=NC=C2Cl)NC3=C(C=C(C=C3)N4CCOCC4)OC
Outline: as §1

[6] = compound: CC[C@@H]1C(=O)N(C)c2cnc(Nc3ccc(C(=O)NC4CCN(C)CC4)cc3OC)nc2N1C1CCCC1
Outline: as §1

encorafenib = compound: COC(=O)N[C@@H](C)CNc1nccc(-c2cn(C(C)C)nc2-c2cc(Cl)cc(NS(C)(=O)=O)c2F)n1 [encorafenib]
Outline: as §1

[7] = compound: COC(=O)[C@H](CCSC)NC(=O)C1=C(C=C(C=C1)NC[C@H](CS)N)C2=CC=CC=C2
Outline: as §1

[8] = compound: CCCS(=O)(=O)Nc1ccc(F)c(C(=O)c2c[nH]c3ncc(Cl)cc23)c1F
Outline: as §1

volasertib = compound: CC[C@@H]1C(=O)N(C)c2cnc(Nc3ccc(C(=O)N[C@H]4CC[C@H](N5CCN(CC6CC6)CC5)CC4)cc3OC)nc2N1C(C)C [volasertib]
Outline: as §1

[9] = compound: COc1cc2nc(-c3cc(F)ccc3O)nc(N[C@@H]3CNC[C@H]3C(C)(C)O)c2cc1OC
Outline: as §1

Measured: log2 fold change

SETD1B (UniProt Q9UPS6)
inactive: vemurafenib 0.04 | barasertib -0.045 | [1] -0.275 | [2] 0.026 | saracatinib 0 | sotrastaurin 0.062 | alvocidib -0.093 | defactinib -0.009 | [3] 0.132

SGK3 (UniProt Q96BR1)
inactive: vemurafenib 0.045 | [4] 0.336 | saracatinib -0.066 | Tubastatin A 0.284 | [5] -0.011 | defactinib -0.157 | [3] 0.126

SKIL (UniProt P12757)
inactive: vemurafenib -0.035 | [6] -0.148 | [4] -0.086 | [1] 0.127 | [2] -0.001 | alvocidib 0.129 | Tubastatin A 0.195 | [5] 0.129 | defactinib -0.153 | encorafenib -0.085 | [7] 0.093

SERBP1 isoform 3 (UniProt Q8NC51)
inactive: [8] -0.089 | barasertib -0.058 | [6] 0.121 | volasertib 0.132 | [4] 0.074 | saracatinib -0.033 | sotrastaurin 0.047 | Tubastatin A 0.117 | [5] -0.078 | [3] -0.03 | encorafenib 0.091 | [7] -0.047 | [9] -0.007
